According to paper PMC12670160, “A drug-repurposing screen of FDA- and EMA-approved drugs identifies two NF-κB inhibitors active against eumycetoma” (Journal of Antimicrobial Chemotherapy, 2025):
Counter-ions that a name gives are not always drawn. Like-named read-outs stand apart in the source and are kept apart here. The campaign covered roughly 5,300 compounds. About 130 (2.5%) showed an effect of 50% or more. This is one part of the list.

System: M. mycetomatis strain mm55
Details: 96 h, 2 µM
[1] = primary screen, metabolic activity vs growth control, inhibitor

SMILES	% viability (m. mycetomatis hyphae) [%]	% viability [1] [%]
CC(C)N(CCc1c[nH]c2ccccc12)C(C)C [ONC0004089, dipt]	117.6	–
CCOC(=O)c1cncn1[C@H](C)c1ccccc1 [ONC0004128, etomidate]	104.1	–
COc1cc2cc(c1Cl)N(C)C(=O)C[C@H](OC(=O)C(C)C)[C@]1(C)O[C@H]1[C@H](C)[C@@H]1C[C@@](O)(NC(=O)O1)[C@H](OC)/C=C/C=C(\C)C2 [ONC0000769, ansamitocin p3]	44.45	–
OCC(O)[C@H]1O[C@@H]2O[C@H](C(Cl)(Cl)Cl)O[C@@H]2[C@H]1O (some centres unmarked) [ONC0004285, chloralose]	88.6	–
N#CCC(=O)c1ccccc1 [ONC0003704, cl225385]	88.41	–
Cc1ccc2c(c1)[C@]13CCCC[C@@H]1[C@H](C2)N(C)CC3 [ONC0001964, dimemorfan]	96.79	–
C[C@]12CC[C@H](O)C[C@H]1CC[C@@H]1[C@@H]2CC[C@]2(C)[C@@H](c3ccc(=O)oc3)C[C@H]3O[C@]132 [ONC0000923, resibufogenin]	65.14	–
CC(=O)O[C@H]1CC[C@@]2(C)C(=CCC3C2CC[C@]2(C)C(=O)CCC32)C1 (some centres unmarked) [ONC0003269, prasterone acetate]	44.2	–
NNC(=O)CN1C(=O)CN=C(c2ccccc2)c2cc(Br)ccc21 [ONC0002593, gidazepam]	72.34	–
CC[C@@H](CO)NC(=O)[C@@H]1C=C2c3cccc4[nH]cc(c34)C[C@H]2N(C)C1 [ONC0002697, methylergometrine]	60.3	–
CCOC(=O)Nc1ccc(NCc2ccc(F)cc2)cc1N [ONC0001235, retigabine]	53.09	–
COc1ccc2c(c1OC)C(=O)O[C@@H]2[C@H]1c2cc3c(cc2CCN1C)OCO3 [ONC0000646, hydrastine 1r 9s]	84.03	–
CN1[C@@H]2CC[C@H]1C[C@@H](OC(=O)c1cc(Cl)cc(Cl)c1)C2 [ONC0000390, bemesetron]	–	83.79
COc1ccc(CC2NCCc3cc(OC)c(OC)cc32)cc1OC (centres unmarked) [ONC0004956, tetrahydropapaverine hydrochloride]	85.71	–
COc1ccsc1CNCC[C@@]1(c2ccccn2)CCOC2(CCCC2)C1 [ONC0001391, oliceridine hydrochloride]	102.3	–
O=C(O)CNC(=O)C1C(=O)N(C2CCCCC2)C(=O)N(C2CCCCC2)C1=O [ONC0000974, daprodustat]	112.7	–
CCCCCCCCCCC(=O)O[C@H]1CC[C@H]2[C@@H]3CCC4=CC(=O)CC[C@]4(C)[C@H]3CC[C@]12C [ONC0001989, testosterone undecanoate]	86.49	–
CN(C(=O)/C=C/c1ccoc1)[C@@H]1CC[C@@]2(O)[C@H]3Cc4ccc(O)c5c4[C@@]2(CCN3CC2CC2)[C@H]1O5 [ONC0001145, nalfurafine hydrochloride]	84.21	–
N#C[C@H](O[C@@H]1O[C@H](CO[C@@H]2O[C@H](CO)[C@@H](O)[C@H](O)[C@H]2O)[C@@H](O)[C@H](O)[C@H]1O)c1ccccc1 [ONC0004987, amygdalin]	64.45	–

Reprinted at random: two entries already listed, in no set order.
SMILES	% viability (m. mycetomatis hyphae) [%]	% viability [1] [%]
C[C@]12CC[C@H](O)C[C@H]1CC[C@@H]1[C@@H]2CC[C@]2(C)[C@@H](c3ccc(=O)oc3)C[C@H]3O[C@]132 [ONC0000923, resibufogenin]	65.14	–
CC(=O)O[C@H]1CC[C@@]2(C)C(=CCC3C2CC[C@]2(C)C(=O)CCC32)C1 (some centres unmarked) [ONC0003269, prasterone acetate]	44.2	–

Following part:

SMILES	% viability (m. mycetomatis hyphae) [%]	% viability [1] [%]
CC(=O)N1CC[N+](C)(C)CC1 [ONC0000048, 4acetyl11dimethylpiperazinium]	75.95	–
S=C=Nc1cccc(NC(=S)NCCCCNC(=S)Nc2cccc(N=C=S)c2)c1 [ONC0005101, mrs 2578]	76.23	–
CN1C[C@H](CNC(=O)OCc2ccccc2)C[C@@H]2c3cccc4c3c(cn4C)C[C@H]21 [ONC0003316, metergoline]	–	72.73
O=[N+]([O-])c1ncc[nH]1 [ONC0002747, azomycin 2nitroimidazole]	88.58	–
CCCCCCCCCC(=O)O[C@H]1CC[C@H]2[C@@H]3CCC4=CC(=O)CC[C@@H]4[C@H]3CC[C@]12C [ONC0000895, nandrolone decanoate]	54.5	–
O=C(N[C@H]1CN2CCC1CC2)c1ccc2c(c1)OCCO2 [ONC0002631, pha568487 fumarate]	74.47	–
O=C1CN=C(c2cccc(Br)c2)c2oc3ccccc3c2N1 [ONC0000192, 5bdbd]	69.26	–
Oc1ccc2c3c1O[C@H]1[C@@H](O)CC[C@@]4(O)[C@@H](C2)N(CC2CCC2)CC[C@]314 [ONC0002017, nalbuphinehcl]	86.82	–
COC(=O)C[C@](O)(CCC(C)(C)O)C(=O)O[C@@H]1C(OC)=C[C@]23CCCN2CCc2cc4c(cc2[C@H]13)OCO4 [ONC0003494, harringtonine]	81.44	–
CCOc1ccccc1O[C@@H](c1ccccc1)[C@@H]1CNCCO1.CCOc1ccccc1O[C@H](c1ccccc1)[C@H]1CNCCO1 [ONC0004420, reboxetine]	159.3	–
C[C@]12CC[C@H](O)C[C@H]1CC[C@@H]1[C@@H]2CC[C@]2(C)[C@@H](C3=CC(=O)OC3)CC[C@]12O [ONC0002328, digitoxigenin]	82.95	–
O=C(CBr)N1CC([N+](=O)[O-])([N+](=O)[O-])C1 [ONC0001848, 2bromo133dinitroazetidin1ylethan1one]	86.51	–
CCn1nc(C)c2c1C(c1ccccc1)=NCC(=O)N2 [ONC0002127, ripazepam]	106.5	–
CC(C)C[C@H](NC(=O)[C@H](CCCCN)NC(=O)[C@H](CCCN=C(N)N)NC(=O)[C@H](C)NC(=O)[C@H](CO)NC(=O)[C@H](CCCCN)NC(=O)[C@H](CCCN=C(N)N)NC(=O)[C@H](C)NC(=O)CNC(=O)[C@@H](NC(=O)[C@H](Cc1ccccc1)NC(=O)CNC(=O)CNC(=O)[C@@H](N)Cc1ccccc1)[C@@H](C)O)C(=O)N[C@@H](C)C(=O)N[C@@H](CC(N)=O)C(=O)N[C@@H](CCC(N)=O)C(=O)O [ONC0002009, orphaninfq nociceptin]	86.82	–
COC[C@@H](NC(C)=O)C(=O)NCc1ccccc1 [ONC0003496, lacosamide]	80.52	–
OCCCCO [ONC0002153, 14butanediol]	73.64	–
Cn1c2c(c3ccccc31)CCNCC2 [ONC0004357, pnu22394]	99.1	–
CCOP(=S)(OCC)Oc1ccc2c(C)c(Cl)c(=O)oc2c1 [ONC0003318, coumophos]	94.05	–
CCC1(CC)C(=O)NC(=O)N(C)C1=O [ONC0002068, metharbital]	67.65	–

SMILES	% viability (m. mycetomatis hyphae) [%]	% viability [1] [%]
CCN1C[C@]2(COC(=O)c3ccccc3N3C(=O)C[C@H](C)C3=O)CC[C@H](OC)[C@@]34[C@@H]5C[C@H]6[C@H](OC)[C@@H]5[C@](O)(C[C@@H]6OC)[C@@](O)([C@@H](OC)[C@H]23)[C@@H]14 [ONC0001918, methyllycaconitine]	86.93	–
O=C(/C=C/c1ccc(O)cc1)C1=C(O)C(O)([C@@H]2O[C@H](CO)[C@@H](O)[C@H](O)[C@H]2O)C(O)=C([C@@H]2O[C@H](CO)[C@@H](O)[C@H](O)[C@H]2O)C1=O (some centres unmarked) [ONC0002065, hydroxysafflor yellow a]	71.37	–
C/C(=C\C(N)C(=O)O)CP(=O)(O)O (centres unmarked) [ONC0004111, cgp 37849]	128	–
COc1cc(C)[nH]c(=O)c1CNC(=O)c1c(C)n([C@H](C)C2CCOCC2)c2ccccc12 [ONC0001134, cpi360]	70.69	–
c1ccc2c(c1)sc1ccccc12 [ONC0000385, dibenzothiophene]	66.56	–
C=C(C)[C@@H]1[C@H]2OC(=O)[C@H]1[C@]1(O)C[C@H]3O[C@]34C(=O)O[C@H]2[C@]14C [ONC0004797, picrotoxinin]	48.22	–
O=C(C[S+]([O-])C(c1ccccc1)c1ccccc1)NO (centres unmarked) [ONC0001184, adrafinil]	106.5	–
C[C@]12COC(=O)C[C@@H]1CC[C@@H]1[C@@H]2CC[C@@]2(C)[C@H]1CC[C@]2(C)O [ONC0001895, oxandrolone]	92.75	–
CCOP(=S)(OCC)Oc1nc(Cl)c(Cl)cc1Cl [ONC0003271, chlorpyrifos]	79.42	–
Cc1sc2c(c1C)C(c1ccc(Cl)cc1)=N[C@@H](CC(=O)OC(C)(C)C)c1nnc(C)n1-2 [ONC0005134, jq1]	102.1	–
CN1CCc2cc3c(cc2C1[C@@H]1OC(=O)c2c1ccc1c2OCO1)OCO3 (some centres unmarked) [ONC0001472, bicuculline]	70.01	–
Cn1c(COP(=O)(NCCBr)NCCBr)cnc1[N+](=O)[O-] [ONC0001269, evofosfamide]	78.36	–
CC(=O)NC1N=C(c2ccccc2)c2ccccc2NC1=O (centres unmarked) [ONC0001858]	90.13	–
Ic1cncc(OC[C@@H]2CCN2)c1 [ONC0001838, 5iodoa85380]	120.9	–
CC(C)CC(N)C1(c2ccc(Cl)cc2)CCC1 (centres unmarked) [ONC0002665, bts54505]	62.54	–
CCc1cc2c(s1)-n1c(C)nnc1CN=C2c1ccccc1Cl [ONC0001021, etizolam]	83.85	–
Cc1ncc(OC[C@@]2(c3cccc(F)c3)C[C@H]2C(=O)Nc2ccc(F)cn2)c(C)n1 [ONC0001232, lemborexant]	126.3	–
C=CCC1(CC(C)C)C(=O)NC(=O)NC1=O [ONC0002224, butalbital]	58.87	–
